We go through one substance from PMC11180186.

Chains of the proteins cited; added tags and fusions are not shown.
UniProt P26599: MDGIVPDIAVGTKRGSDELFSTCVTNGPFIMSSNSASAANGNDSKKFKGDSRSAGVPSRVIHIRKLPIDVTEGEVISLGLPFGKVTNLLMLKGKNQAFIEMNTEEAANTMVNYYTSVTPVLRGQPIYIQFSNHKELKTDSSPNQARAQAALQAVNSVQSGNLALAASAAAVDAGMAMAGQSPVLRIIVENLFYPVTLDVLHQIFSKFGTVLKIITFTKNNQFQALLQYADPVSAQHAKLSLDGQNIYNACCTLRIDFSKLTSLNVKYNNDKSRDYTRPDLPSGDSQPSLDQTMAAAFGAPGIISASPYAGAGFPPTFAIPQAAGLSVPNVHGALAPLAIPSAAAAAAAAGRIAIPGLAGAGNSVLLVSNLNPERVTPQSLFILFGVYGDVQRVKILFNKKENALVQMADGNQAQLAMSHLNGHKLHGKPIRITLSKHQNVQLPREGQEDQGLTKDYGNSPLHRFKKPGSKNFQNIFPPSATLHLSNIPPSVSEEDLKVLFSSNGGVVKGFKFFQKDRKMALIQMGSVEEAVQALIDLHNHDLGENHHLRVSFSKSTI

Results are given in words; binding and its absence hold for the method and conditions named. Binding seen in cells or lysates may run through a third protein. Some binding calls cover weakened binding; strength is not graded here.

This experiment has as its target methyl-CpG binding protein 2 (MECP2), human, endogenous in ReNcell CX cells (human (endogenous in ReNcell CX)) (UniProt P51608). Kind of experiment: co-IP; co-IP from nuclear extracts of human ReNcell CX cells, control or treated with folic acid or 5AZA; western blot, quantified with ImageJ. On the technique in general: Immunoblotting shows a protein as a band on a membrane.

Turning to “polypyrimidine tract-binding protein PTBP1, human, endogenous in ReNcell CX cells (from UniProt P26599 1-557)”, the binding result is recorded as “binds”.
